# Experimental data: doi:10.1101/2020.08.28.269175
# Protein sequences, listed by entry. Tags and fused reporters are not part of them. Lines headed by an entry give the natural chain unless they say otherwise; changes in a name come on top.
# UniProt P0DTD2, whole entry, stated change not applied: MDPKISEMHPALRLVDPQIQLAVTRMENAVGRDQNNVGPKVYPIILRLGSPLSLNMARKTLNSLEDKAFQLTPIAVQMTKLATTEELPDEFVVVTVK
# These are yes or no findings as the source states them, for the method shown. Binding seen in cells or lysates may run through a third protein. These calls come from enrichment with a bait or labelling near it, and not all partners need be listed.
# B1: mitochondrial antiviral signaling protein (MAVS), Q7Z434 1-540 (protein)
# chain: MPFAEDKTYKYICRNFSNFCNVDVVEILPYLPCLTARDQDRLRATCTLSGNRDTLWHLFNTLQRRPGWVEYFIAALRGCELVDLADEVASVYQSYQPRTSDRPPDPLEPPSLPAERPGPPTPAAAHSIPYNSCREKEPSYPMPVQETQAPESPGENSEQALQTLSPRAIPRNPDGGPLESSSDLAALSPLTSSGHQEQDTELGSTHTAGATSSLTPSRGPVSPSVSFQPLARSTPRASRLPGPTGSVVSTGTSFSSSSPGLASAGAAEGKQGAESDQAEPIICSSGAEAPANSLPSKVPTTLMPVNTVALKVPANPASVSTVPSKLPTSSKPPGAVPSNALTNPAPSKLPINSTRAGMVPSKVPTSMVLTKVSASTVPTDGSSRNEETPAAPTPAGATGGSSAWLDSSSENRGLGSELSKPGVLASQVDSPFSGCFEDLAISASTSLGMGPCHGPEENEYKSEGTFGIHVAENPSIQLLEGNPGPPADPDGGPRPQADRKFQEREVPCHRPSPGALWLQVAVTGVLVVTLLVVLYRRRLH
# Molecular target: SARS-CoV-2 ORF9B (SARS-CoV-2), P0DTD2
# Experiment: proximity labelling
# Details: remark: other sources report otherwise
binder,measurement,value
B1,binding,binds
